From ChEMBL document CHEMBL3988442, “University of Dundee, Small-Polar-MMV Screening Library” (2021).

Amino acid sequences for entries named in this document (tags omitted).
UniProt E9BF75, entry or part of it: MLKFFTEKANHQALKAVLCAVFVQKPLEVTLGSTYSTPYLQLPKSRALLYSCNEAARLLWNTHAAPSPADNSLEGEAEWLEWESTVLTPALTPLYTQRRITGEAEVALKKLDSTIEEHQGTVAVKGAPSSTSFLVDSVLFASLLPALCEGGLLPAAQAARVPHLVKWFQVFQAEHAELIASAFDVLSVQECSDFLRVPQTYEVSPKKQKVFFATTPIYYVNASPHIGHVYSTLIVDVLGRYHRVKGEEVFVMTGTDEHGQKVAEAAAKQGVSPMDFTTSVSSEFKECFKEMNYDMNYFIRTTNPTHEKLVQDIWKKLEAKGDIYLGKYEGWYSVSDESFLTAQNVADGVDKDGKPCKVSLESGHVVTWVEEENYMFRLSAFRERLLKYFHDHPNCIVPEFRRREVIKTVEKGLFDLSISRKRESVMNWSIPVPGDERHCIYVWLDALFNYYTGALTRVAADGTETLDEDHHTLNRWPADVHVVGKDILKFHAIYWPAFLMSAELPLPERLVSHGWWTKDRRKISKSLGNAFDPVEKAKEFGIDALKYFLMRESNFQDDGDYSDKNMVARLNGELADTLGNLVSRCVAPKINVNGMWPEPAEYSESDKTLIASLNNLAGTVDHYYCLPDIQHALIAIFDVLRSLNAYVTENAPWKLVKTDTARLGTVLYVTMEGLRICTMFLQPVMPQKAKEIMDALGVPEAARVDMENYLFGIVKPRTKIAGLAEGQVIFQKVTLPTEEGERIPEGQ

Results are percentages, as filed.
How 0% and 100% were set is not recorded. Most values in the screen are low, and negative values occur.
Compounds were drawn at random from those tested, without regard to their results.
A dash means the value is not listed here; it may have been measured.

LdMetRS: 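Primary screen of methionyl-tRNA synthetase; the read-out is not stated. Target: Methionyl-tRNA synthetase (putative), Leishmania donovani (UniProt E9BF75). The test concentration is not given. The values are filed as inhibition. Size under these conditions: about 68,000 compounds, about 24 of them at 50% or above in at least one test.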
Mtb heat-shock: 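Assay on Mycobacterium tuberculosis, filed only as a heat shock assay from Cornell; the read-out is not stated. The concentration is filed as 10 mM, unlikely as a test dose, so the dose is not known. The record gives no direction; compounds that gave an IC50 in retests scored well above the rest, so higher reads as stronger inhibition. Size under these conditions: about 69,000 compounds, about 930 of them at 50% or above in at least one test.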

| SMILES | LdMetRS | Mtb heat-shock |
|---|---|---|
| `Cc1ccc(CCCC(=O)N2CC(=O)Nc3cccnc32)s1` | 15.33 | -15.16 |
| `O=C(c1cc2cc(F)ccc2[nH]1)N1CCC(Nc2cccnn2)CC1` | 8.711 | 8.523 |
| `CC(C)(C)NC(=O)c1cnc2n1CCCC2` | 16.01 | -173.6 |
| `CCc1nc(CN(C)C(=O)C2CC(=O)N(c3cccc(O)c3)C2)no1` (centres unmarked) | 10.03 | -3.352 |
| `[H][C@]12C[C@H](NC(=O)C(C)C)[C@@]1([H])CN(S(=O)(=O)c1ccc(C)cc1)C2` | - | -29.54 |
| `COCCCN(C)C1CCCN(Cc2noc(C)n2)C1` (centres unmarked) | 13.02 | -0.1308 |
| `CC(C)NS(=O)(=O)c1cc(C(=O)O)cc(-c2ccc3c(c2)OCCO3)c1` | 6.145 | -9.707 |
| `CN(Cc1cc(Br)cn1C)C(=O)c1cccnc1` | 14.8 | -153.6 |
| `Cc1cc(C(=O)N2CCN(Cc3ccsc3)CC2)n(C)n1` | 15.9 | -14.83 |
| `CC(C)c1nc(C2CCCN(C(=O)CN(C)S(C)(=O)=O)C2)no1` (centres unmarked) | 16.03 | 14.08 |
| `O=C(NCc1cccnc1-n1cccn1)C1CC(=O)N(CC2CC2)C1` (centres unmarked) | 2.083 | -15.27 |
| `Cc1noc(C)c1CN1CCO[C@H]2CN(Cc3cnn(C)c3)C[C@H]21` | 6.875 | - |
| `Cc1nc(CCN2CCC(Oc3ccccc3F)CC2)c(C)s1` | 8.042 | -6.217 |
| `FC(F)(F)Oc1ccc(-c2noc([C@@H]3Cc4nc[nH]c4CN3)n2)cc1` | 7.143 | 17.31 |
| `Cc1cccc(-c2nc3cc(S(=O)(=O)N4CCCC4)ccc3n2C)n1` | 2.071 | -19.99 |
| `Cc1ccc(CN2CC[C@H]3CO[C@H](CN4CCCC4)[C@H]3C2)o1` | 6.162 | - |
| `O=C(c1cnc(C2CC2)s1)N1CCCCC1Cn1cccn1` (centres unmarked) | 11.81 | -24.24 |
| `CC(C)[C@@H]1CN(c2ccc(F)cn2)C[C@H]1NS(C)(=O)=O` | 2.719 | -148.9 |
| `Cn1cc(-c2nnn3c2COC(CNC(=O)c2cccs2)C3)cn1` (centres unmarked) | 6.875 | 3.009 |
| `COCC(=O)NC(C)Cc1cccc(Cl)c1` (centres unmarked) | 20.22 | 29.44 |
| `CCc1nc(C2CCCN(C(=O)C(C)(C)NS(C)(=O)=O)C2)no1` (centres unmarked) | 19.89 | -1.662 |
| `CS(=O)(=O)NCc1nnc2n1CCN(Cc1nccs1)C2` | 2.488 | 0.1149 |
| `CO[C@@H]1CN(c2ccccc2)S(=O)(=O)[C@@]12CCN(CC1CC1)C2` | 12.88 | 22.18 |
| `COCCN1CCC(Cc2cnc(-c3ccccc3C(=O)O)cn2)CC1` | 0.565 | -25.96 |
| `COCCNC(=O)C1(c2ccccc2C)CCOCC1` | -1.307 | 8.291 |
| `O=C(O)C(=O)O.c1cnc(-c2noc(C3CN(Cc4ccc5c(c4)CCO5)C3)n2)cn1` | - | 14.77 |
| `CC(CNC(=O)c1cccc(-n2cccn2)n1)Cn1ccnc1` (centres unmarked) | 24.06 | -35.56 |
| `CN1CCN(C(=O)c2cccn2C)c2ccccc2C1` | 6.859 | -16.8 |
| `NC(=O)c1cc(NC(=O)N2CCOCC2)ccc1F` | 5.722 | -6.644 |
| `O=C(O)[C@@H]1CN(Cc2cnc(C3CCCCC3)nc2)C[C@H]1C1CC1` | 10.48 | -14.13 |
| `Cc1cc(C)nc(NCCCC(=O)NCCn2ccc3ccccc32)n1` | 15.45 | 11.21 |
| `COc1ccc2oc(C(C)NC(=O)NCC(C)(C)C(N)=O)c(C)c2c1` (centres unmarked) | 6.609 | -7.681 |
| `c1ccc2nc(N3CCCCC3)c(NCc3nnc4n3CCC4)nc2c1` | - | 9.143 |
| `O=C(CCn1c(C(F)(F)F)cc2cccnc21)NC1CCCC1` | 19.35 | -10.7 |
| `Cn1cc(N2CCC3(CCN(Cc4cccnc4)C3)C2=O)cn1` (centres unmarked) | 13.8 | - |
| `Cc1nnc(CN(C)C(=O)C(CC(C)C)N2CCCCC2=O)n1C` (centres unmarked) | 13.77 | -5.536 |
| `Cn1nnnc1SCCNC(=O)c1cccc2ccnn12` | 0.2725 | 0.7096 |
| `CCOC(C)c1nccn1Cc1noc(CC)n1` (centres unmarked) | 11.67 | -0.5326 |
| `O=C1CC(C(=O)NCc2ccccc2Oc2ccccc2F)CCN1` (centres unmarked) | 8.883 | -19.54 |
| `CCOc1ccc(CC(CNC(=O)c2sccc2C)C(N)=O)cc1` (centres unmarked) | 5.155 | 8.978 |
| `O=C(O)C(F)(F)F.[H][C@@]12CN(C(=O)C3CC3)C[C@]1([H])C(=O)N(Cc1csc(C)n1)C2` | - | -7.229 |
| `O=S(=O)(C1CC1)N1CCc2ncnc(N3CCCC3)c2CC1` | 12.32 | - |
| `CC(=O)Nc1ccc2nn(C(C)C)cc2c1` | 23.43 | -10.9 |
| `CCN1CCCC(O)(c2nc(C)c(CCOc3ccccc3Cl)s2)CC1` (centres unmarked) | 9.677 | 8.308 |
| `COCCN1CCc2ccc(=O)n(Cc3csc(C)n3)c2CC1` | 13.59 | - |
| `CCC(Nc1cccc(OC)c1)C(=O)NCc1nc(C)cc(=O)[nH]1` (centres unmarked) | 14.2 | 3.332 |
| `O=C(NCc1cn2c(n1)SCC2)c1cn(CCN2CCCCC2)nn1` | 0.625 | -6.452 |
| `O=C1CCc2cc(S(=O)(=O)NCc3cc4n(n3)CCCNC4)ccc2N1` | 14.97 | -4.249 |
| `Cn1cnc(S(=O)(=O)NCCN2CCCCCC2=O)c1Cl` | 1.307 | 16.52 |
| `CCS(=O)(=O)N1CCC2(CN(c3cccc(C)n3)C2)C1` | 8.014 | - |
| `O=C(NCc1cccnc1)c1nc2c(s1)CCCN2C(=O)C1CC1` | 11.43 | - |
| `Cc1csc2c(=O)n3c(nc12)CCN(C(=O)c1cccnc1)CC3` | 12.67 | -23.03 |
| `O=C1OCCN1CCNc1ncc2c(n1)CCN2c1ccccc1` | 6.406 | 15.77 |
| `Cc1oc(-c2ccco2)nc1CC(=O)N1CCN(C2CCC2)CC1` | 6.25 | 13.46 |
| `CS(=O)(=O)N1CCC2(CCN(Cc3nccs3)CC2)CC1.O=C(O)C(F)(F)F` | - | -23.2 |
| `COC1(CNC(=O)c2cccc(C#N)c2)CCSC1` (centres unmarked) | 9.859 | 1.1 |
| `CN(Cc1cccnc1)C1COC2(CCN(Cc3nccs3)CC2)C1` (centres unmarked) | 9.589 | - |
| `Cc1nc(N)cc(C2CN(C(=O)c3cscn3)CCO2)n1` (centres unmarked) | 13.83 | -7.153 |

The first 5 entries again:

* Cc1ccc(CCCC(=O)N2CC(=O)Nc3cccnc32)s1 | LdMetRS: 15.33%; Mtb heat-shock: -15.16%
* O=C(c1cc2cc(F)ccc2[nH]1)N1CCC(Nc2cccnn2)CC1 | LdMetRS: 8.711%; Mtb heat-shock: 8.523%
* CC(C)(C)NC(=O)c1cnc2n1CCCC2 | LdMetRS: 16.01%; Mtb heat-shock: -173.6%
* CCc1nc(CN(C)C(=O)C2CC(=O)N(c3cccc(O)c3)C2)no1 (centres unmarked) | LdMetRS: 10.03%; Mtb heat-shock: -3.352%
* [H][C@]12C[C@H](NC(=O)C(C)C)[C@@]1([H])CN(S(=O)(=O)c1ccc(C)cc1)C2 | Mtb heat-shock: -29.54%